{
  "source": "PubChem BioAssay AID504444",
  "about": "(National Center for Advancing Translational Sciences (NCATS), 2011)",
  "note": "The whole screen tested about 360,000 compounds, of which about 7,500 (2.1%) were called active. The shares of active, inactive and inconclusive entries below differ from those in the screen. Calls come from the whole dose curve; as a rule, active = well fitted inhibition curve with a large enough effect; inconclusive = small, poorly fitted or top-dose-only effect, or effect the other way; inactive = flat fitted curve, though single readings scatter. Where the call is inconclusive, the potency comes from a doubtful curve fit. % is set by controls: 0 for no effect and ±100 for the full control effect; potency is the fitted concentration of half-maximal effect.",
  "data": [
    {"assay": "Nrf2 qHTS screen for inhibitors; note: nearly all actives have a fitted effect of over 60% in size", "conditions": "A549 ARE-Fluc reporter, luciferase luminescence, 18-24 h; activity change, negative = inhibition: at 46 µM (top of the series)", "method_in_brief": "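In this cell-based qHTS, ARE-driven firefly luciferase in A549 cells reports Nrf2 activity; the luminescent signal after BugLite lysis is the measured value, with a prior CellTiter-Fluor read for cell health.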", "values": [
      {"compound": "COc1ccc(CNC(=O)c2cc3oc4ccccc4c3n2C)cc1OC", "Potency": "inconclusive: 29.1 µM [activator, single point]"},
      {"compound": "COc1cc(C(=O)Nc2ccc(NC(=O)C3CCCCC3)nc2)cc(OC)c1OC", "Potency": "inconclusive: 29.1 µM [activator, single point]"},
      {"compound": "COC(=O)c1cc(-c2ccc(Br)cc2)c2c(=O)[nH]c(=O)n(C)c2n1", "Potency": "inconclusive: 1.46 µM [falling, full curve, poor fit]"},
      {"compound": "CC(C)(C)c1ccc(Cn2cnc(-c3ccc([N+](=O)[O-])cc3)c2)cc1", "Potency": "inconclusive: 32.6 µM [falling, single point]"},
      {"compound": "CCOc1ccccc1Nc1nnc(SCC(=O)Nc2cccc(S(=O)(=O)NC3=NCCCCC3)c2)s1", "Potency": "inconclusive: 20.6 µM [falling, single point]"},
      {"compound": "CC(=O)c1c(C)[nH]c(C(=O)N2CCc3ccccc3C2)c1C", "Potency": "inconclusive: 29.1 µM [falling, single point]"},
      {"compound": "CCC(=O)Nc1ccc2oc(-c3ccccc3Br)nc2c1", "Potency": "inconclusive: 29.1 µM [activator, single point]"},
      {"compound": "CC(C)CN(C(=O)COC(=O)C1CC1)c1c(N)n(Cc2ccccc2)c(=O)[nH]c1=O", "activity change, negative = inhibition": "inactive: 20.4%"},
      {"compound": "Clc1ccc(N2CCN(/N=C/c3ccncc3)CC2)cc1", "Potency": "inconclusive: 29.1 µM [falling, single point]"},
      {"compound": "Cc1cc2cc(CNC(=O)NC3CCCCC3)ccc2[nH]1", "Potency": "inconclusive: 6.51 µM [activator, partial curve, poor fit]"},
      {"compound": "OC[C@@H]1CC[C@@H](Cc2ccc(-c3ccccc3)cc2)O1", "Potency": "inconclusive: 2.31 µM [activator, full curve, poor fit]"},
      {"compound": "O=C(NCC1CCCO1)Nc1ccc(Cl)cc1", "note": "(stereo not given)", "Potency": "inconclusive: 4.11 µM [activator, full curve]"},
      {"compound": "CN(Cc1ccccc1)C(=O)COc1ccc(N(C)S(=O)(=O)c2ccc(F)cc2)cc1", "Potency": "inconclusive: 3.66 µM [falling, single point]"},
      {"compound": "CCS(=O)(=O)N1CCC(C(=O)Nc2ccc3c(c2)CCC3)CC1", "Potency": "inconclusive: 29.1 µM [activator, single point]"},
      {"compound": "CC(C)c1ccccc1OCCCCN1CCCCC1", "Potency": "inconclusive: 29.1 µM [falling, single point]"},
      {"compound": "O=C(/C=C/c1cccc(Cl)c1)Nn1c(-c2cccs2)nc2ccccc2c1=O", "Potency": "inconclusive: 29.1 µM [falling, single point]"},
      {"compound": "CCOC(=O)c1cnn(Cc2cccc(Cl)c2)c1C", "Potency": "inconclusive: 16.4 µM [falling, partial curve, poor fit]"},
      {"compound": "CCCNC(=O)C1CCC(Cn2c(=O)c3sccc3n(CC(=O)N3CCCC3)c2=O)CC1", "note": "(stereo not given)", "Potency": "inconclusive: 0.411 µM [activator, full curve, poor fit]"},
      {"compound": "CN(C)/N=C/C=C1\\CC/C(=C\\c2ccc(Br)cc2)C1=O", "activity change, negative = inhibition": "inactive: -0.537%"},
      {"compound": "COc1ccccc1-c1nn(-c2ccccc2)cc1C(=O)N1CCc2ccccc2C1", "Potency": "active: 20.6 µM"},
      {"compound": "CCOC(=O)c1c(NC(=O)COc2cccc3c2CCN(C)C3=O)sc2c1CCC2", "Potency": "inconclusive: 29.1 µM [falling, single point]"},
      {"compound": "COc1ccc(-n2c(O)c(/C=N/NS(=O)(=O)c3ccc(C)cc3)c3ccccc3c2=O)cc1OC", "Potency": "inconclusive: 8.2 µM [falling, partial curve]"},
      {"compound": "COc1ccc(NC(=O)CCS(=O)(=O)c2ccc(Br)s2)cc1", "activity change, negative = inhibition": "inactive: -24.4%"},
      {"compound": "C/C(N)=C(/C#N)C(=O)CSc1nc2ccccc2c(=O)n1-c1ccccc1C", "Potency": "inconclusive: 32.6 µM [falling, single point]"},
      {"compound": "CC(=O)N1CCCC1c1nc2ccccc2n1Cc1ccccc1C", "note": "(stereo not given)", "Potency": "active: 3.26 µM"},
      {"compound": "CCC(C)n1c(-c2cccs2)nc2nc3ccccc3nc21", "note": "(stereo not given)", "Potency": "inconclusive: 5.17 µM [activator, single point]"},
      {"compound": "CCc1ccc(NC(=O)CC2C(=O)N(c3cccc(C)c3)C(=O)N2Cc2ccco2)cc1", "note": "(stereo not given)", "Potency": "inconclusive: 5.8 µM [activator, partial curve, poor fit]"},
      {"compound": "c1ccc(-c2nc3nc4ccccc4nc3n2Cc2ccco2)cc1", "Potency": "inconclusive: 11.2 µM [activator, partial curve]"},
      {"compound": "COc1ccc(-c2cc(C(=O)N3CCc4ccccc4C3)no2)cc1OC", "Potency": "inconclusive: 18.4 µM [falling, partial curve, poor fit]"},
      {"compound": "O=c1cn[nH]c2ccc(Br)cc12", "Potency": "inconclusive: 29.1 µM [falling, partial curve, poor fit]"},
      {"compound": "CC1CCN(S(=O)(=O)c2ccc3c(ccn3CCC(=O)NCc3ccc(N(C)C)cc3)c2)CC1", "activity change, negative = inhibition": "inactive: -6.81%"},
      {"compound": "COc1cc2c(cc1OC)CN(C(=O)CSc1nc3[nH]ncc3c(=O)n1-c1ccccc1)CC2", "Potency": "inconclusive: 1.46 µM [falling, full curve]"},
      {"compound": "Cc1ccc(NC(=O)c2nc[nH]c2C(=O)NCc2ccccc2)cc1", "Potency": "inconclusive: 16.4 µM [falling, single point]"},
      {"compound": "CCOc1ccc(NC(=O)CN(C)C(=O)c2nc3nc(C)cc(C)n3n2)cc1OCC", "Potency": "inconclusive: 32.6 µM [falling, partial curve, poor fit]"},
      {"compound": "Cc1cc2c(cc1C)C(=O)NC(C)(C)C2", "Potency": "active: 7.31 µM"},
      {"compound": "O=C(/C=C/c1ccc2c(c1)OCO2)c1ccco1", "Potency": "inconclusive: 8.2 µM [activator, partial curve]"},
      {"compound": "Cc1ccccc1NC1=C(C(=O)c2ccccc2)N(C)S(=O)(=O)c2ccccc21", "Potency": "inconclusive: 20.6 µM [falling, partial curve, poor fit]"},
      {"compound": "O=C(CSc1ccc(-c2nc3ccccc3[nH]2)cn1)Nc1ccc2c(c1)OCCO2", "Potency": "inconclusive: 1.03 µM [activator, full curve, poor fit]"},
      {"compound": "CCCCCCCC#Cc1ccccc1/C=N/S(=O)c1ccc(C)cc1", "note": "(stereo not given)", "activity change, negative = inhibition": "inactive: 15.9%"},
      {"compound": "CCOC(=O)c1sc2nc3c(cc2c1N)COC(C)(C)C3", "Potency": "inconclusive: 2.31 µM [activator, full curve]"},
      {"compound": "O=C(Nc1ccc(F)c(Cl)c1)C1CCCN(c2cnccn2)C1", "note": "(stereo not given)", "Potency": "inconclusive: 13 µM [falling, partial curve]"},
      {"compound": "COc1ccc(CC2C(=O)Nc3ccc(Br)cc32)cc1OC", "note": "(stereo not given)", "activity change, negative = inhibition": "inactive: -6.52%"},
      {"compound": "COc1cc(CNCc2cccnc2)ccc1OCC(=O)NC1CCCCC1", "Potency": "inconclusive: 1.16 µM [falling, partial curve, poor fit]"},
      {"compound": "N#CC(C(=O)Nc1ccccc1)=C1CCCCC1", "Potency": "inconclusive: 5.17 µM [activator, full curve]"},
      {"compound": "CCc1nn2c(N3CCOCC3)cc(C)nc2c1-c1ccccc1", "Potency": "inconclusive: 1.16 µM [falling, full curve]"},
      {"compound": "C=CCc1c(C)nc2c(-c3ccccc3)cnn2c1N1CCOCC1", "Potency": "inconclusive: 2.91 µM [activator, full curve]"},
      {"compound": "Cc1ccc(NC(=O)Cn2c(=O)n(CCC(=O)NCc3ccccc3Cl)c(=O)c3ccccc32)cc1", "Potency": "inconclusive: 20.6 µM [falling, single point]"},
      {"compound": "Cc1ccc(-c2nnc3ccccc3c2C(=O)Nc2ccccc2F)cc1", "Potency": "inconclusive: 23.1 µM [activator, partial curve, poor fit]"},
      {"compound": "Cc1ccc(C)c(Cn2nnc3c(=O)[nH]c(C(=O)NCc4ccco4)nc32)c1", "Potency": "inconclusive: 20.6 µM [falling, partial curve, poor fit]"},
      {"compound": "CCc1ccc(Oc2coc3cc(O)ccc3c2=O)cc1", "Potency": "active: 7.31 µM"},
      {"compound": "CCOC(=O)N1CCN(C(=O)c2ccc3c(c2)NC(=O)/C(=C\\c2ccc(OC)c(OC)c2)S3)CC1", "activity change, negative = inhibition": "inactive: 2.29%"},
      {"compound": "COc1ccccc1N(CC(O)Cn1nc(C)cc1C)S(=O)(=O)c1ccccc1", "note": "(stereo not given)", "Potency": "inconclusive: 4.61 µM [falling, single point]"},
      {"compound": "CCc1nnc(NC(=O)C2CC(=O)N(c3ccc4c(c3)OCCO4)C2)s1", "note": "(stereo not given)", "Potency": "inconclusive: 0.58 µM [falling, partial curve]"},
      {"compound": "CCc1ccc(S(=O)(=O)/N=C2\\C=C(Nc3ccc(C(=O)O)cc3)C(=O)c3ccccc32)cc1", "activity change, negative = inhibition": "inactive: -0.936%"},
      {"compound": "CN(c1ccc(OCc2nnc(-c3ccccc3)o2)cc1)S(=O)(=O)c1ccccc1", "Potency": "inconclusive: 16.4 µM [falling, partial curve, poor fit]"},
      {"compound": "CCOc1ccc(C(CCc2ccccc2)NC(=O)c2ccccc2)cc1OCC", "note": "(stereo not given)", "Potency": "inconclusive: 23.1 µM [falling, partial curve, poor fit]"},
      {"compound": "COc1ccc(Cl)cc1NC(=O)CSc1cn(CC(=O)N2CCCCCC2)c2ccccc12", "Potency": "active: 25.9 µM"},
      {"compound": "NS(=O)(=O)c1ccc(N2CCN(CCOc3ccc(Cl)cc3)CC2)nc1", "Potency": "inconclusive: 20.6 µM [falling, single point]"},
      {"compound": "Clc1ccc(-c2ncc3ccccn23)cc1", "Potency": "inconclusive: 20.6 µM [activator, partial curve]"},
      {"compound": "CCN(CC)S(=O)(=O)c1cccc(C(=O)N2CCCCC2)c1", "Potency": "inconclusive: 4.11 µM [activator, single point]"},
      {"compound": "COC1=C(Nc2ccc(O)cc2)C(=O)c2ccccc2C1=O", "Potency": "active: 23.1 µM"},
      {"compound": "COc1ccc(S(=O)(=O)N2CCSC2c2ccc(OC)c(OC)c2)cc1", "note": "(stereo not given)", "Potency": "inconclusive: 20.6 µM [falling, partial curve, poor fit]"},
      {"compound": "CCCCn1nnc(NC(=O)c2sc3cc(Cl)ccc3c2Cl)n1", "Potency": "inconclusive: 2.91 µM [falling, full curve]"},
      {"compound": "Cc1cc2oc(=O)cc(CN3CCN(Cc4ccccc4)CC3)c2cc1O", "Potency": "inconclusive: 9.2 µM [falling, partial curve, poor fit]"},
      {"compound": "O=C(O)c1cccc(N/N=C/c2cccnc2)c1", "Potency": "inconclusive: 8.2 µM [activator, partial curve]"}
    ]}
  ]
}
